From US20210115121A1
These are yes or no findings as the source states them, for the method shown. Some entries that bind do so weakly or less than the wild type.

Protein sequences, listed by entry. Tags and fused reporters are not part of them. Lines headed by an entry give the natural chain unless they say otherwise; changes in a name come on top. Chains listed by the source or under a name are the forms on record and can include a tag or linker.
Tau from human Alzheimer's disease brain (isolated Tau PHF fibrils from Alzheimer's disease patients) (P10636, form named): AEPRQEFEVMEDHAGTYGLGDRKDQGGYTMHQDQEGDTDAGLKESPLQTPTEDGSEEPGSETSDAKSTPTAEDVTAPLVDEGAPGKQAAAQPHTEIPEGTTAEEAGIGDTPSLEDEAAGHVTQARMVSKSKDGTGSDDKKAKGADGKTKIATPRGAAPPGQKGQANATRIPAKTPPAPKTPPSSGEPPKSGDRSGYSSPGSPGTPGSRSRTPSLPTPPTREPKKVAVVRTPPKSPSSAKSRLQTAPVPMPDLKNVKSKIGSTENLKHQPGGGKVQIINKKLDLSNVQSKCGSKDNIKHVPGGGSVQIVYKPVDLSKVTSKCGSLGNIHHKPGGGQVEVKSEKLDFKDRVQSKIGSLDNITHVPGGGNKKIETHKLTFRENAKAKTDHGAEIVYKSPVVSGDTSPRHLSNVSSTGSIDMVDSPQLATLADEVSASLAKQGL
human Tau P301L from brain of P301L Tau transgenic mice (P10636, form named): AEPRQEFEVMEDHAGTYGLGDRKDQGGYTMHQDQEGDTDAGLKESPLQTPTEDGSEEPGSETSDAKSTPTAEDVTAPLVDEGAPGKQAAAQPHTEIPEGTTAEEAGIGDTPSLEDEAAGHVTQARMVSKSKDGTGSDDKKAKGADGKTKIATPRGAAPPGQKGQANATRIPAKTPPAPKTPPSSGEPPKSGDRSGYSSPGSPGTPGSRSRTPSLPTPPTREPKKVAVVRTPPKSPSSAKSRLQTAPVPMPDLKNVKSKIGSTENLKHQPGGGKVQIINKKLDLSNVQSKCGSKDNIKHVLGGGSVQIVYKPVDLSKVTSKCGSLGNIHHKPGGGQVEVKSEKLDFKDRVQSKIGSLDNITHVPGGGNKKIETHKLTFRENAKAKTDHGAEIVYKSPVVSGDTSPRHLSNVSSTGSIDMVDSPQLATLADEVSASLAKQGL

Tests used:
[1] = molecular target: Tau from control human brain (samples of Tau negative pathology) (human) (UniProt P10636); assay: western blot
[2] = molecular target: Tau from human Alzheimer's disease brain (isolated Tau PHF fibrils from Alzheimer's disease patients) (human) (UniProt P10636); assay: western blot
[3] = molecular target: Tau from human progressive supranuclear palsy brain (human) (UniProt P10636); assay: western blot
[4] = molecular target: human Tau P301L from brain of P301L Tau transgenic mice (human) (UniProt P10636); assay: western blot
[5] = molecular target: Tau from control human brain (samples of Tau negative pathology) (human) (UniProt P10636); assay: western blot (Experiment 3.3)
[6] = molecular target: Tau from human Alzheimer's disease brain (isolated Tau PHF fibrils from Alzheimer's disease patients) (human) (UniProt P10636); assay: western blot (Experiment 3.3)
[7] = molecular target: Tau from human progressive supranuclear palsy brain (human) (UniProt P10636); assay: western blot (Experiment 3.3)
[8] = molecular target: Tau from control human brain (samples of Tau negative pathology) (human) (UniProt P10636); assay: immunostaining of human brain samples
[9] = molecular target: Tau from human Alzheimer's disease brain (isolated Tau PHF fibrils from Alzheimer's disease patients) (human) (UniProt P10636); assay: immunostaining of human brain samples
[10] = molecular target: Tau from human Alzheimer's disease brain (isolated Tau PHF fibrils from Alzheimer's disease patients) (human) (UniProt P10636); assay: immunostaining of cryosections of human AD hippocampus
[11] = molecular target: Tau from control human brain (samples of Tau negative pathology) (human) (UniProt P10636); assay: immunostaining of human brain cryosections (Experiment 3.2)
[12] = molecular target: Tau from human Alzheimer's disease brain (isolated Tau PHF fibrils from Alzheimer's disease patients) (human) (UniProt P10636); assay: as above
[13] = molecular target: Tau from human Alzheimer's disease brain (isolated Tau PHF fibrils from Alzheimer's disease patients) (human) (UniProt P10636); assay: Western blot (SDS-PAGE, PVDF membrane) on Tau from fraction 8 samples of human brain
[14] = molecular target: Tau from human progressive supranuclear palsy brain (human) (UniProt P10636); assay: as above
[15] = molecular target: Tau from control human brain (samples of Tau negative pathology) (human) (UniProt P10636); assay: Western blot (SDS-PAGE, PVDF membrane) on Tau from fraction 8 samples of human brain [continued) B]
[16] = molecular target: Tau from human Alzheimer's disease brain (isolated Tau PHF fibrils from Alzheimer's disease patients) (human) (UniProt P10636); assay: as above
[17] = molecular target: Tau from human progressive supranuclear palsy brain (human) (UniProt P10636); assay: as above
[18] = molecular target: Tau from control human brain (samples of Tau negative pathology) (human) (UniProt P10636); assay: Western blot (SDS-PAGE, PVDF membrane) on Tau from fraction 8 samples of human brain [continued) C]
[19] = molecular target: Tau from human Alzheimer's disease brain (isolated Tau PHF fibrils from Alzheimer's disease patients) (human) (UniProt P10636); assay: as above
[20] = molecular target: Tau from human progressive supranuclear palsy brain (human) (UniProt P10636); assay: as above
[21] = molecular target: Tau from human Alzheimer's disease brain (isolated Tau PHF fibrils from Alzheimer's disease patients) (human) (UniProt P10636); assay: SPR, Biacore T200
[22] = molecular target: Tau from human Alzheimer's disease brain (isolated Tau PHF fibrils from Alzheimer's disease patients) (human) (UniProt P10636); assay: SPR, Biacore (Experiment 2.3)

Measured: binding

B1: AB1 having a rat VL of SEQ ID NO: 7 and a rat VH of SEQ ID NO.:8 (antibody, IgG1, V domains shown)
VH: EVKLEESGPGLMQPSETLSLTCTVSGFSLTSNDIAWVRQPLGKGLVWMGTIWTDGSTNYNSAVQSRLSISRDTSKSQFFLKMNSLQPEDTGTYYCARHRLYYGAFDYWGQGTMVTVS
VL: DIVMTQTPVSLSVTLGDQASISCRSSQSLEYSDGYTYLEWYLQKPGQSPQLLIYEVSNRFSGVPDRFIGSGSGTDFTLKISRVEPEDLGVYYCFQATHNPYTFGAGTKLEIK
binds: [1] | [2] | [3] | [4] | [5] | [6] | [7] | [8] | [9] | [10] | [11] | [12] | [13] | [14]

B2: Tau-binding antibody having the light chain of SEQ ID No.: 14 and the heavy chain of SEQ ID No.:17 (antibody, human IgG4 S228P, kappa, V domains shown)
VH: EVQLQESGPGLVKPSETLSLTCTVSGFSLTSNDIAWIRQPPGKGLEWMGTIWTDGSTNYNAAVQSRVTISVDTSKNQFSLKLSSVTAADTAVYYCARHRLYYGAFDYWGQGTMVTVSS
VL: DIVMTQTPLSLSVTPGQPASISCRSSQSLEYSDGYTYLEWYLQKPGQSPQLLIYEVSNRFSGVPDRFSGSGSGTDFTLKISRVEAEDVGVYYCFQATHNPYTFGQGTKLEIKR
binds: [1] | [2] | [3] | [4] | [15] | [16] | [17]

B3: Tau-binding antibody having the light chain of SEQ ID No.: 14 and the heavy chain of SEQ ID No.:18 (antibody, human IgG4 S228P, kappa, V domains shown)
VH: EVQLQESGPGLVKPSETLSLTCTVSGFSLTSNDIAWIRQPPGKGLEWMGTIWTDGSTNYNTAVQSRVTISVDTSKNQFSLKLSSVTAADTAVYYCARHRLYYGAFDYWGQGTMVTVSS
VL: DIVMTQTPLSLSVTPGQPASISCRSSQSLEYSDGYTYLEWYLQKPGQSPQLLIYEVSNRFSGVPDRFSGSGSGTDFTLKISRVEAEDVGVYYCFQATHNPYTFGQGTKLEIKR
binds: [1] | [2] | [3] | [4] | [18] | [19] | [20]

B4: mFab AB1 having a rat VL of SEQ ID No.: 7 and a rat VH of SEQ ID No.: 8 (Fab, V domains shown)
VH: EVKLEESGPGLMQPSETLSLTCTVSGFSLTSNDIAWVRQPLGKGLVWMGTIWTDGSTNYNSAVQSRLSISRDTSKSQFFLKMNSLQPEDTGTYYCARHRLYYGAFDYWGQGTMVTVS
VL: DIVMTQTPVSLSVTLGDQASISCRSSQSLEYSDGYTYLEWYLQKPGQSPQLLIYEVSNRFSGVPDRFIGSGSGTDFTLKISRVEPEDLGVYYCFQATHNPYTFGAGTKLEIK
binds: [21] | [22]
